These are yes or no findings as the source states them, for the method shown. In cells and extracts the contact can be indirect. Some results given as binding are weak or reduced against the parent protein; the word gives no strength.
Columns and labels:
[1] = target: T1, DUSP4 protein (over-expressed in HCT116 cells) (UniProt Q13115); assay: co-IP; forward and reverse co-IP in lysate (RIPA buffer) of DUSP4 over-expressed HCT116 cells; antibody-conjugated magnetic beads incubated with lysate 1 hour at room temperature
T1 sequence: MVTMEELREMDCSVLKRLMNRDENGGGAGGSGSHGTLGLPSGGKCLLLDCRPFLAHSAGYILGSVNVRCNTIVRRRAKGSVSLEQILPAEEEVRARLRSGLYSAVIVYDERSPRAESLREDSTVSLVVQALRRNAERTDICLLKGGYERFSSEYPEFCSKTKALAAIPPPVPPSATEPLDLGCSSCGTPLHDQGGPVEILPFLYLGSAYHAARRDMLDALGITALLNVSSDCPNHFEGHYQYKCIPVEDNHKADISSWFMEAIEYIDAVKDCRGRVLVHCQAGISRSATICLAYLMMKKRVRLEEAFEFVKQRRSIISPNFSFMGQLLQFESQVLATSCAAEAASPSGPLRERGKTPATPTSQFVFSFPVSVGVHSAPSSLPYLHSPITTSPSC

Protein sequences, listed by entry. Tags and fused reporters are not part of them.
UniProt Q13485: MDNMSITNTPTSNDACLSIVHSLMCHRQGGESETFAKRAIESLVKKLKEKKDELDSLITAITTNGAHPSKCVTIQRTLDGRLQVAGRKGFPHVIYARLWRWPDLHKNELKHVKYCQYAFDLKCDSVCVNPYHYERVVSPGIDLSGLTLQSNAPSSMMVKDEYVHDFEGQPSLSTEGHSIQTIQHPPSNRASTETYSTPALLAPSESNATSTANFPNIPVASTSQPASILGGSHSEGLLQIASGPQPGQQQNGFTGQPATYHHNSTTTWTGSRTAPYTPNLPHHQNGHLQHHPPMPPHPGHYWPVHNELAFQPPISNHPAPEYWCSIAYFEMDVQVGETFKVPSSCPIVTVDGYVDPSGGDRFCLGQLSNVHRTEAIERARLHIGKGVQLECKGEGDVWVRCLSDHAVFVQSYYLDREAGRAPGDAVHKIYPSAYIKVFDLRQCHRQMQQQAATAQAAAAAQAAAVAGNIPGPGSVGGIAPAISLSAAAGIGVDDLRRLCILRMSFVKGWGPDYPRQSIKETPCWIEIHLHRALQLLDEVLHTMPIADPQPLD

[2] = target: Smad4 protein (human (endogenous in SW480 and HCT116)) (UniProt Q13485); assay: co-IP; SW480 cell lysate (RIPA buffer); antibody-conjugated magnetic beads incubated with lysate 1 hour at room temperature; which protein was precipitated is not told
[3] = target: Smad4 protein (human (endogenous in SW480 and HCT116)) (UniProt Q13485); assay: co-IP; forward and reverse co-IP in lysate (RIPA buffer) of DUSP4 over-expressed HCT116 cells; antibody-conjugated magnetic beads incubated with lysate 1 hour at room temperature

Smad4 protein (from UniProt Q13485 1-552)
binding [1]: binds

B1: DUSP4 protein (protein, UniProt Q13115 1-394)
chain: T1 sequence
binding [2]: binds

B2: DUSP4 protein (over-expressed in HCT116 cells) (protein, UniProt Q13115 1-394)
chain: T1 sequence
binding [3]: binds
